From PMC8564539
These are yes or no findings as the source states them, for the method shown. In cells and extracts the contact can be indirect. Some binding calls cover weakened binding; strength is not graded here.

Chains of the proteins cited; added tags and fusions are not shown. Residues count along the entry.
UniProt Q9ULZ3, residues 107-195: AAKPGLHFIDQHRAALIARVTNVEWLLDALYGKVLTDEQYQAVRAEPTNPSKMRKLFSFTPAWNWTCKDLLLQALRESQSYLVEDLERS

Biological target: T1, NLRC4-CARD-AGIA (human) (UniProt Q9NPP4)
T1 sequence: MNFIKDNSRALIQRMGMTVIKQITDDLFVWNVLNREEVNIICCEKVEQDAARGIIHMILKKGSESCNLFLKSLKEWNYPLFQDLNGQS
Assay: co-IP; AGIA-tagged and FLAG-tagged domain co-expressed in HEK293T; NP-40 buffer lysate; anti-AGIA or anti-FLAG M2 antibody with protein A beads, 3 h, 4 °C; immunoblot with the other tag's antibody

binding: binds
Substance: ASC-CARD-FLAG (from UniProt Q9ULZ3 107-195) (domain or fragment)
